From article PMC3701075 come the findings set out here.

The target of assay [1] is His-tagged RP1 wild type protein (UniProt Q15555). The assay is described as follows: pull-down; His-tagged RP1 isolated with Ni-NTA-agarose beads from lysates of stably expressing HEK293 cells; washing with increasing PBS/Tween (0%-0.3%); blots probed with CK2 subunit antibodies; the paper calls it co-immunoprecipitation.
Assay [2] has as its target protein kinase CK2 (human (endogenous in HEK293)) (UniProt P68400+P67870). The experiment in a line: co-IP; reverse experiment: CK2 antibodies used for precipitation from HEK293 lysate, membrane probed with RP1 antibody detecting endogenous RP1; washing 0.01% and 0.3% Tween/PBS.

No constants are given. Whether binding was seen depends on the method and setting. Binding seen in cells or lysates may run through a third protein. Some results given as binding are weak or reduced against the parent protein; the word gives no strength.

“protein kinase CK2 (from UniProt P68400 1-391; P67870 1-215) (complex)”: in assay [1], the binding entry is “binds”.
As for “endogenous RP1 (from UniProt Q15555 1-327)”, the binding result in assay [2] was “binds”.
